Laboratory results reported in article PMC4215638, “J-147 a Novel Hydrazide Lead Compound to Treat Neurodegeneration: CeeTox™ Safety and Genotoxicity Analysis” (Journal of neurology & neurophysiology, 2013).

Test system: rat hepatoma (H4IIE) cell line
Experiment: CTox ranking (CeeTox proprietary algorithm from TC50 values)
Format: cell-based
Conditions: CTox 90 μM versus neurotrophism EC50 0.025 μM

Structure (SMILES): COc1cccc(/C=N/N(C(=O)C(F)(F)F)c2ccc(C)cc2C)c1 [J-147, (E)-N-(2,4-Dimethylphenyl)-2,2,2-trifluoro-N′-(3-methoxybenzylidene) acetohydrazide]
- neurotrophism/toxicity ratio: 3600
